# Results: PubChem BioAssay AID493014 (National Center for Advancing Translational Sciences (NCATS), 2011)
# This is one part of the list. Shown are side measurements of this screen, not its main read-out; they come without a call. Compounds called inactive in the main read-out are mostly missing here. Potencies come from curve fits of mixed quality, noted in brackets.
# Assay: qHTS Assay to Find Inhibitors of Chronic Active B-Cell Receptor Signaling
# Settings: ABC-DLBCL IkBa-CBG/CBR reporter, luminescence ratio (green luciferase fused to IkBa over red control in TMD8 lymphoma cells), 4 h
# In short: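 TMD8 ABC-DLBCL cells carrying doxycycline-inducible green luciferase fused to IkappaBalpha plus unfused red luciferase were exposed to compounds (up to 46 uM) for 4 hrs at 37C. Activity came from the overlap-corrected green/red luminescence ratio.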
# [1] = measured here: CBR red luminescence, cell number
# [2] = measured here: IkBa-CBG green luminescence
SMILES,AC50 [1],AC50 [2]
OCCCNc1nc(-c2ccc(Br)cc2)nnc1-c1ccc(Cl)cc1,"14.6 µM [falling, partial curve, poor fit]",
COc1ccc(NC(=O)c2ccc(NCC3CCCO3)c([N+](=O)[O-])c2)cc1 (stereo unspecified),"0.708 µM [falling, full curve, poor fit]",
CCOC(=O)Cn1nnnc1C(C(C)C)N(Cc1cccs1)Cc1cc2cc(C)ccc2[nH]c1=O (stereo unspecified),"32.6 µM [falling, single point]",
Clc1ccccc1-c1nnc2sc(CCc3ccccc3)nn12,"0.58 µM [rising, partial curve, poor fit]",
COC(=O)/C=C1\SC(=Nc2ccccc2)NC1=O,"16.4 µM [falling, single point]",
CC(C)(C)c1ccc(C(=O)c2c[nH]c(C(=O)O)c2)cc1,"15.8 µM [falling, single point]",
COc1cc(OC)c(N(C)S(=O)(=O)c2cccc(C(=O)NC3=NCCS3)c2)cc1Cl,"35.5 µM [falling, single point]",
COc1cccc(C(=O)Nc2ccc(N(C)C)cc2)c1OC,"0.58 µM [falling, partial curve, poor fit]",
CCOc1ncccc1C(=O)OCC(=O)Nc1c(C)cccc1C,"11.6 µM [rising, partial curve]",
O=C(Nc1nc(-c2ccccc2)ns1)c1ccc(Cl)cc1,"2.51 µM [falling, full curve]",
O=C(Nc1ccc(Oc2cccnc2)cc1)c1cccc([N+](=O)[O-])c1,"0.731 µM [rising, full curve]",
COc1ccc(C)cc1Nc1n[n+](C)c(-c2c3ccccc3cc3ccccc23)s1,"12.6 µM [falling, single point]",
COc1ccc(CNC(=O)C2CC(=O)N(c3ccc(OCC(=O)N4CCCCC4)cc3)C2)cc1 (stereo unspecified),"20.6 µM [rising, single point]",
O=C(CCN1C(=O)C2CCCCC2C1=O)Nc1nc2c(F)cc(F)cc2s1 (stereo unspecified),"4.11 µM [falling, partial curve, poor fit]",
O=C(Nc1ccc(Cl)cc1Cl)N1CCN(c2ncccn2)CC1,"1.78 µM [rising, partial curve, poor fit]",
Cc1cc(NC(=O)c2ccc3nccnc3c2)ccc1Br,"3.66 µM [falling, single point]",
O=C(NCC1CCCO1)c1cccc(NS(=O)(=O)c2ccccc2)c1 (stereo unspecified),"18.4 µM [rising, single point]",
CC1CC(C)CN(C(=O)CSCC(=O)O)C1 (stereo unspecified),"0.631 µM [rising, full curve, poor fit]",
O=C(Cn1c(-c2ccccc2)noc1=O)N1CCC(Cc2ccccc2)CC1,"5.62 µM [falling, single point]",
CCOC(=O)Cc1nc2ccccc2[nH]1,,"3.26 µM [rising, partial curve, poor fit]"
CCOC(=O)c1cc(-c2ccccc2)n(CCC(=O)NCCc2ccc(C)cc2)c1C,"4.47 µM [rising, partial curve, poor fit]",
C/C(=N\NC(=O)c1ccco1)c1ccc(NC(=O)c2cccs2)cc1,"23.1 µM [falling, single point]",

SMILES,AC50 [1],AC50 [2]
Cc1noc(C)c1NC(=O)Nc1ccc2c(c1)CC(=O)N([C@@H](C)CO)C[C@@H](C)[C@@H](CN(C)C(=O)Nc1cccc3ccccc13)O2,"10.3 µM [rising, partial curve, poor fit]",
O=C(COC(=O)CNC(=O)C1CCCCC1)Nc1ccc2ccccc2c1,"0.326 µM [rising, full curve, poor fit]",
Cc1ccnc(NS(=O)(=O)c2ccc(NC(=O)c3ccc([N+](=O)[O-])s3)cc2)n1,"20 µM [rising, single point]",
CC1CCN(c2nc3ccc(C(=O)NCCCN4CCCCC4)cc3s2)CC1,"0.631 µM [falling, full curve, poor fit]",
CC(C)Cn1cnc2c1c(=O)n(CC(=O)O)c(=O)n2Cc1ccccc1,"3.16 µM [rising, full curve, poor fit]",
Cc1ccc(C(=O)Nn2c(O)c(C=C3N=c4ccccc4=N3)sc2=S)cc1,"5.01 µM [falling, full curve, poor fit]",
Oc1c(Cl)cc(Cl)cc1C=Nc1cc(C(F)(F)F)ccc1N1CCc2ccccc2C1,"35.5 µM [falling, single point]",
CCc1cccc(NC(=O)CCNS(=O)(=O)c2ccc3[nH]c(=O)oc3c2)c1,"2.51 µM [falling, partial curve, poor fit]",
Cc1onc(-c2ccccc2)c1CNC(=O)C1COc2ccccc2O1 (stereo unspecified),"2.82 µM [rising, partial curve, poor fit]",
Cc1ccc(NC(=O)NCc2ccc3c(c2)OCO3)cc1C,"3.16 µM [falling, partial curve, poor fit]",
CCN(CC)C(=O)CNc1ccc(C(F)(F)F)cc1[N+](=O)[O-],"29.1 µM [rising, partial curve, poor fit]",
Cc1c(OCC(=O)NCCN2CCOCC2)ccc2c3c(c(=O)oc12)CCC3,"35.5 µM [rising, single point]",
O=C(NCc1cn2ccccc2n1)c1ccc(Br)o1,"10.3 µM [falling, partial curve]",
Cn1c(=O)[nH]c(=O)c2c1nc(Br)n2CC(O)c1ccccc1 (stereo unspecified),"12.6 µM [falling, partial curve]",
CCOC(=O)c1c(CSc2ccccc2)oc2ccc(O)cc12,"6.51 µM [rising, single point]",
CCOc1ccc(CCNC(=O)c2cc(-c3ccccc3)c(N3CCOCC3)s2)cc1OCC,"3.55 µM [falling, partial curve, poor fit]",
COc1ccc(/C=C/c2nc(-c3ccccc3O)n[nH]2)cc1,"3.26 µM [falling, partial curve]",
CCOc1ccc(-n2cnnn2)cc1S(=O)(=O)NCc1ccccc1,"0.058 µM [rising, full curve, poor fit]",
Cc1cccc(N(C)C(=O)c2cc3cc4ccc(C)cc4nc3o2)c1,"2.91 µM [rising, single point]",
CCOC(=O)c1ccc(NC2Nc3cc(C)nn3S2)cc1 (stereo unspecified),"17.8 µM [rising, partial curve, poor fit]",
c1ccc(CCSc2nccn2-c2ccccc2)cc1,"12.6 µM [falling, single point]",
CCCOC(=O)c1c(NC(=O)/C=C/c2cnn(C)c2C)sc(C(=O)OCC)c1C,"14.1 µM [falling, single point]",

# Part of the list above, with bars between the fields.
SMILES | AC50 [1] | AC50 [2]
O=C(COC(=O)CNC(=O)C1CCCCC1)Nc1ccc2ccccc2c1 | 0.326 µM [rising, full curve, poor fit] | 
Cc1ccnc(NS(=O)(=O)c2ccc(NC(=O)c3ccc([N+](=O)[O-])s3)cc2)n1 | 20 µM [rising, single point] | 
CC1CCN(c2nc3ccc(C(=O)NCCCN4CCCCC4)cc3s2)CC1 | 0.631 µM [falling, full curve, poor fit] | 
CC(C)Cn1cnc2c1c(=O)n(CC(=O)O)c(=O)n2Cc1ccccc1 | 3.16 µM [rising, full curve, poor fit] | 

# The listing continues.

SMILES,AC50 [1],AC50 [2]
O=C(Cc1cccs1)NCc1ccccc1F,"23.1 µM [rising, partial curve, poor fit]",
Cc1ccc(C(=O)NC2CCCCNC2=O)cc1C (stereo unspecified),"35.5 µM [falling, single point]",
O=[N+]([O-])c1ncccc1OCc1ccc(Cl)c(Cl)c1,"10 µM [rising, partial curve]",
COc1ccc(C)cc1NC(=O)c1cc2c(=O)n3ccccc3nc2n1C,"3.55 µM [rising, single point]",
COc1ccc(N=Cc2[nH]c3ccccc3c2O)cc1,"17.8 µM [falling, partial curve, poor fit]",
COc1ccc(/C=N/Nc2cc(C)nc3ccc(OC)cc23)c(OC)c1,"22.4 µM [falling, single point]",
CSc1nc(C)c2cc(C)oc2n1,"2.31 µM [falling, partial curve, poor fit]",
CCCCC(=O)NC(c1ccco1)c1cc(Cl)c2cccnc2c1O (stereo unspecified),"1.41 µM [falling, partial curve, poor fit]",
CO/N=C/c1ccc(Sc2ccccc2)c([N+](=O)[O-])c1,"16.4 µM [rising, partial curve]",
Cc1cccc(-n2c(N)cc(=O)nc2SC(C)C(=O)NC2CCCCC2)c1 (stereo unspecified),"0.355 µM [rising, partial curve, poor fit]",
O=C(CSCc1ccc(F)cc1)NCc1ccco1,"20.6 µM [rising, single point]",
CCN(CC)S(=O)(=O)c1cc([N+](=O)[O-])ccc1NNC(=O)Nc1ccc(Cl)c(Cl)c1,"20.6 µM [falling, single point]","20.6 µM [rising, partial curve, poor fit]"
Cc1ccccc1C(=O)N/N=C/c1ccncc1,"11.2 µM [falling, partial curve]",
O=[N+]([O-])c1cc(S(=O)(=O)NCCN2CCOCC2)ccc1Sc1nnnn1-c1ccccc1,"32.6 µM [falling, single point]",
COc1ccc2[nH]c3c(=O)n(CCN4CCOCC4)cnc3c2c1,"20 µM [rising, single point]",
NS(=O)(=O)c1ccc(CCNC(=O)Nc2ccc(Cl)c(Cl)c2)cc1,"16.4 µM [falling, single point]",
O=C(COC(=O)COc1ccccc1[N+](=O)[O-])NC1CCCC1,"1.03 µM [rising, full curve, poor fit]",
Cc1ccc(OCCSCc2nnc(NC(=O)Nc3cccc(Cl)c3)s2)cc1,"10.3 µM [rising, partial curve]",
COc1ccc(NC(=O)c2ccccc2SC)cc1OC,"10.3 µM [falling, partial curve, poor fit]",
O=C(NCc1ccco1)c1ccc(S(=O)(=O)N2CCCc3ccccc32)cc1,"23.1 µM [falling, partial curve, poor fit]",
Cc1ccc(S(=O)(=O)N2CCC(C(=O)N[C@@H](Cc3ccccc3)C(=O)O)CC2)cc1,"6.51 µM [rising, single point]",
